Our source for the binding values is paper PMC9288479.

Chains of the proteins cited; added tags and fusions are not shown.
UniProt Q9DBH0: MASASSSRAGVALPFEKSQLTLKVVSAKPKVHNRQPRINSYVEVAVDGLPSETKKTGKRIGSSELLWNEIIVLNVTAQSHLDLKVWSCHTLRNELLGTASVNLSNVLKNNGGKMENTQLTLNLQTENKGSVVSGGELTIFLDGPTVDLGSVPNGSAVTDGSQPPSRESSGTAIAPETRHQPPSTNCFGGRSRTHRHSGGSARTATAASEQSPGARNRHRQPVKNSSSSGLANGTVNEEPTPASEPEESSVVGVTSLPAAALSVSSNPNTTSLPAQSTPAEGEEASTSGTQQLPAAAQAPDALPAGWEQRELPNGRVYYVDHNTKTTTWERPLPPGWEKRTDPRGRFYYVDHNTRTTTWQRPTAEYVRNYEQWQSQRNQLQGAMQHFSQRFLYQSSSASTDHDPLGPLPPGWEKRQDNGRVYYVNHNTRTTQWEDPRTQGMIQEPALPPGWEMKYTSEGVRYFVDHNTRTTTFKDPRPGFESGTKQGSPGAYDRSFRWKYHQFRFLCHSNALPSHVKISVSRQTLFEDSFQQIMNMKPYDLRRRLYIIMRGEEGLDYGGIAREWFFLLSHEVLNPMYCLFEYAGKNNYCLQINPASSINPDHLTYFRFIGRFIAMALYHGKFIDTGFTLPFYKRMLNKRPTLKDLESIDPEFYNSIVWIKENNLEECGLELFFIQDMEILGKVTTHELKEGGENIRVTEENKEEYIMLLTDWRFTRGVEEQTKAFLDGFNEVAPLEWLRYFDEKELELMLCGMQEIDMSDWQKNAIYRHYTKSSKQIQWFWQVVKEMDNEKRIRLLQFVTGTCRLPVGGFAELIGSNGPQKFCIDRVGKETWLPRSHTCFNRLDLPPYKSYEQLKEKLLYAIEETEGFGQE

These are yes or no findings as the source states them, for the method shown. In cells and extracts the contact can be indirect. Here binding means that the protein was enriched with, or labelled near, the bait; the list need not be complete. Sequences can lack the tags named with a protein.

The target in the test is T1, Flag-tagged murine LAPTM5 (Laptm5) (mouse) (UniProt Q61168).
T1 sequence: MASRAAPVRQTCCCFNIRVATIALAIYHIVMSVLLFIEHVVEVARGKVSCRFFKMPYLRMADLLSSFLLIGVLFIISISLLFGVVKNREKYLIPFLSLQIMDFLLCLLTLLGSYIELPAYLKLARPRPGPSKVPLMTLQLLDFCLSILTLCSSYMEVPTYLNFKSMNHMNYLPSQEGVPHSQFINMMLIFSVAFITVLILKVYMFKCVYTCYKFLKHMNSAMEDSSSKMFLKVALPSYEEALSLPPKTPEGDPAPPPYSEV
Description: affinity purification with mass spectrometry; anti-Flag IP (rabbit IgG as control) from 786-O^LAPTM5 and Renca^Laptm5 cells treated or untreated with 10 ng/mL BMP4 for 60 min; TMT-labeled LC-MS/MS.

For the substance “WWP2, endogenous in Renca cells (from UniProt Q9DBH0 1-870) (enzyme)”, the binding entry is recorded as “binds”.
